Among the data in publication PMC12860355 are binding values, retold here.

Protein sequences, listed by entry. Tags and fused reporters are not part of them. Lines headed by an entry give the natural chain unless they say otherwise; changes in a name come on top. Chains listed by the source or under a name are the forms on record and can include a tag or linker.
S119A S120A cofilin (human cofilin-1 double point mutant) (P23528, form named): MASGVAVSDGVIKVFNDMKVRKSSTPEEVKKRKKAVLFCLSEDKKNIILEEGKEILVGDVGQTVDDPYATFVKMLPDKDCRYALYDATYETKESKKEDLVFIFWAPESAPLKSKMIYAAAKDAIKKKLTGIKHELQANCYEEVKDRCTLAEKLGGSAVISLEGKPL

This test concerns the target importin 9 (IPO9), human, GST tag cleaved (human) (UniProt Q96P70). Briefly: SPR; IPO9 coupled to CM5 chip (80 nM, 6000 RU); cofilin WT or S119A S120A (0–55 μM) or profilin (0–60 μM) series, 300 s injection at 20 μl/min; single replicates; both purified. In general terms: Surface plasmon resonance follows binding to a sensor surface in real time, without labels.

These are yes or no findings as the source states them, for the method shown. Some results given as binding are weak or reduced against the parent protein; the word gives no strength.

“human cofilin-1, wild type (from UniProt P23528 1-166)”: the binding entry is given as “binds weakly”. As to “S119A S120A cofilin (human cofilin-1 double point mutant) (from UniProt P23528 1-166)”, the binding entry was “binds weakly”.
